The results in this text go back to publication PMC7294662.

Results are given in words; binding and its absence hold for the method and conditions named. In cells and extracts the contact can be indirect. A yes stands for co-enrichment or nearness to the bait. Other partners may have been found.

The target of test [1] is T1, NMI (human (endogenous in HeLa)) (UniProt Q13287).
T1 sequence: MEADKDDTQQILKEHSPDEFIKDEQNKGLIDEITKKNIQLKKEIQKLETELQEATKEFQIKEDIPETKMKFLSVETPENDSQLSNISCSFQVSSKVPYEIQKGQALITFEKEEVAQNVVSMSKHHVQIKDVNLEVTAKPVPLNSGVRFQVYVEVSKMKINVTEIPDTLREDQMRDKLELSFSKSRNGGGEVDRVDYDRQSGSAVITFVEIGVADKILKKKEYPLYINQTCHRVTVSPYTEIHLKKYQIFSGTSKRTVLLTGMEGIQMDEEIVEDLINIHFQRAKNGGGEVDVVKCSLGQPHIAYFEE
Kind of test: affinity purification with mass spectrometry; immunoprecipitation of the endogenous bait from control or IFN-stimulated HeLa lysate (250 μg protein in SEC buffer) with antibody overnight at 4 °C, protein A/G magnetic beads, on-bead trypsin digestion, label-free quantitation; IgG as control.

In test [2] the target is T2, IFI35 (human (endogenous in HeLa)) (UniProt P80217).
T2 sequence: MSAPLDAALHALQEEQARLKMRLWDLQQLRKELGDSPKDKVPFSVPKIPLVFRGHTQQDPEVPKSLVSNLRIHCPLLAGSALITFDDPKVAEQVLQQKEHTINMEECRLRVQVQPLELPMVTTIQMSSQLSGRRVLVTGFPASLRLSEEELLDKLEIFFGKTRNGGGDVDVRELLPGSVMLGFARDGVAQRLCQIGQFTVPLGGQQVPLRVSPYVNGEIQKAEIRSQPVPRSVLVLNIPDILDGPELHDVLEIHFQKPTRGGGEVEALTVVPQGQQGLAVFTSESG
The description is as above.

B1: IFI35 (protein, UniProt P80217 1-286)
chain: T2 sequence
As to B1, the binding result in test [1] is given as “binds”.

B2: NMI (protein, UniProt Q13287 1-307)
chain: T1 sequence
With B2, the binding result in test [2] is on record as “binds”.
